Experiment [1] deals with T1, recombinant GST-PRR11 (human) (UniProt Q96HE9).
T1 sequence: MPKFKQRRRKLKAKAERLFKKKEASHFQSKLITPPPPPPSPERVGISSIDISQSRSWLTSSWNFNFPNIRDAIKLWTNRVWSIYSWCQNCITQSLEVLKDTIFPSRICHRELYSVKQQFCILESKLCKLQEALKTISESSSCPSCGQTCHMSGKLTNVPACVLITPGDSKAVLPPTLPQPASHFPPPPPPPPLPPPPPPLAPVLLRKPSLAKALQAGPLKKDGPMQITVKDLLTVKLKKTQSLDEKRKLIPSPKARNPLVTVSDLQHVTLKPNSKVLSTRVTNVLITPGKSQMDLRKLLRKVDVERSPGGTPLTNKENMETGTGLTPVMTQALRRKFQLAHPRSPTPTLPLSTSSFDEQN
The experiment in a line: pull-down; GST-PRR11 incubated with His-FBXW7 or His-GSK3β for 3 h at 4°C, then glutathione-Sepharose beads for 2 h at 4°C; eluted with 1× SDS buffer, Western blot; both purified. (A western blot detects proteins with antibodies after separation by electrophoresis.)

By UniProt entry, the sequences of proteins in these tests, tags left out.
UniProt P49841: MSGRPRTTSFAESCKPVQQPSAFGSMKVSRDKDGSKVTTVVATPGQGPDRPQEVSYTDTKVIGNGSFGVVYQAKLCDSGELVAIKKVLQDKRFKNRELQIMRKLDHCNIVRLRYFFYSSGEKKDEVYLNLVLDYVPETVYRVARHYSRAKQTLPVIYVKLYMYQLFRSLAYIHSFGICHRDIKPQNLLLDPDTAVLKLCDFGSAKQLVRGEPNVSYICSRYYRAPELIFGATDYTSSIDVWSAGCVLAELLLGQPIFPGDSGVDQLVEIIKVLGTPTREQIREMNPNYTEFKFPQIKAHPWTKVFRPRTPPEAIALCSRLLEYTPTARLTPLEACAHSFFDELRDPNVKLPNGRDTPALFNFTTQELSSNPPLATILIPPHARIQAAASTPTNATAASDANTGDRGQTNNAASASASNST
UniProt Q969H0: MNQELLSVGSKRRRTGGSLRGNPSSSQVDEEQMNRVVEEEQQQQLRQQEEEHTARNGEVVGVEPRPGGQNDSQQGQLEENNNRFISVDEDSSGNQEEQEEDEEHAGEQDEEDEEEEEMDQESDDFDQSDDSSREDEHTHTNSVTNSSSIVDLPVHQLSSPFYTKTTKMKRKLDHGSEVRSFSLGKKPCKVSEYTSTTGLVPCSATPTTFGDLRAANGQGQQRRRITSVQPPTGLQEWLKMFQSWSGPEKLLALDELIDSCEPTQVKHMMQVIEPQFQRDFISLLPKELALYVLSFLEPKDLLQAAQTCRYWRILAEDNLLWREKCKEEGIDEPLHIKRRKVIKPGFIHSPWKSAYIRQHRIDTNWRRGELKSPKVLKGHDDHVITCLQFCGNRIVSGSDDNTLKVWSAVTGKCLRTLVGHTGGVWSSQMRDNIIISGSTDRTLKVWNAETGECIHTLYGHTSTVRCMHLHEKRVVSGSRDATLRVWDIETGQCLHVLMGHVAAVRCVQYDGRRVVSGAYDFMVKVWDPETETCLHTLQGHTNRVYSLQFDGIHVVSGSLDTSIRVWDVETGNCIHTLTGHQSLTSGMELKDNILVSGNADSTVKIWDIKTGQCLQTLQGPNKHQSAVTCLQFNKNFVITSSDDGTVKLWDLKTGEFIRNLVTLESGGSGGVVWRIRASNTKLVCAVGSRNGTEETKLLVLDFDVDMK

For experiment [2], the target named is T2, HA-PRR11 (amino acids 251-360) (human) (UniProt Q96HE9).
T2 sequence: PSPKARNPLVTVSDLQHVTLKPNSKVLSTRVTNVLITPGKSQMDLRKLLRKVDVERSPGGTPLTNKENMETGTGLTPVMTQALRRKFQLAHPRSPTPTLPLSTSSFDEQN
The experiment in a line: co-IP; 293T cells transfected with HA-PRR11 (WT, fragments or mutants) and Flag-GSK3β or Flag-FBXW7 (WT or mutants); MG132 10 μM for 6 h before collection; IP with HA or Flag antibody, Protein A/G magnetic beads, Western blot; in some panels λ-PPase added to extracts, CHIR-99021, siGSK3β or GSK3β overexpression.

Experiment [3] has as its target T3, HA-PRR11-WT (proline-rich 11) (human) (UniProt Q96HE9).
T3 sequence: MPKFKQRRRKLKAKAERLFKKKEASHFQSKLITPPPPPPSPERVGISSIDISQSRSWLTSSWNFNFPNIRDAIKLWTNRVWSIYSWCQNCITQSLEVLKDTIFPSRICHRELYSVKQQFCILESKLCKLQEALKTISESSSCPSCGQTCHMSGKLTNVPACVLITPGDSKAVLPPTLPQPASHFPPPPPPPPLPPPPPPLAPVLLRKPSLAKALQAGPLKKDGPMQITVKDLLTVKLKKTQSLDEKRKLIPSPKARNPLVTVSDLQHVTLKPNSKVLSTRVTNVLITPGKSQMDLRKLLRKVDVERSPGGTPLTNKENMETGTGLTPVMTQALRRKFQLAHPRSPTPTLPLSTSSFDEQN
The description is as above.

Experiment [4] deals with T4, endogenous PRR11 (human (endogenous in ACHN and Caki-1)) (UniProt Q96HE9).
T4 sequence: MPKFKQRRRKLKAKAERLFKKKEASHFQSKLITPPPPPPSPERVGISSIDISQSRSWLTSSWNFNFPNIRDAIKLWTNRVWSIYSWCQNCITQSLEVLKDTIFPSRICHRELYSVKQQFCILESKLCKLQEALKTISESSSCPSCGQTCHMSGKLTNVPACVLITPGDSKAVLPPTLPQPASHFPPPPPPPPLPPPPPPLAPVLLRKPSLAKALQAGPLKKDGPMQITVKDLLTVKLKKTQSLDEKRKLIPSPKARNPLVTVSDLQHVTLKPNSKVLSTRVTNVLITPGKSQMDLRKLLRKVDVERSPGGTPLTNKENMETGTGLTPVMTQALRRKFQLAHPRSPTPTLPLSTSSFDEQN
The experiment in a line: co-IP; endogenous proteins in RCC cells (ACHN, Caki-1); IP with GSK3β, PRR11 or FBXW7 antibody, Protein A/G magnetic beads, Western blot; in some panels AKT-CA or AKT-DN transfected.

Experiment [5] deals with endogenous GSK3β (human (endogenous in ACHN, Caki-1 and 293T)) (UniProt P49841). Described as above.

The text below walks through data of PMC11898301.

Results are given in words; binding and its absence hold for the method and conditions named. For part of these data: In cells and extracts the contact can be indirect. Some binding calls cover weakened binding; strength is not graded here. For part of these data: Sequences can lack the tags named with a protein.

Take “recombinant His-FBXW7 (from UniProt Q969H0 1-707)”: the binding entry in experiment [1] is recorded as “binds”.
With Flag-GSK3β (from UniProt P49841 1-420), the binding entry in experiment [2] and in experiment [3] was “binds” in each case.
“endogenous FBXW7 (from UniProt Q969H0 1-707)”: the binding result in experiment [4] is listed as “binds”.
Take “recombinant His-GSK3β (from UniProt P49841 1-420)”: the binding result in experiment [1] is “binds”.

B1: endogenous PRR11 (protein, UniProt Q96HE9 1-360)
chain: MPKFKQRRRKLKAKAERLFKKKEASHFQSKLITPPPPPPSPERVGISSIDISQSRSWLTSSWNFNFPNIRDAIKLWTNRVWSIYSWCQNCITQSLEVLKDTIFPSRICHRELYSVKQQFCILESKLCKLQEALKTISESSSCPSCGQTCHMSGKLTNVPACVLITPGDSKAVLPPTLPQPASHFPPPPPPPPLPPPPPPLAPVLLRKPSLAKALQAGPLKKDGPMQITVKDLLTVKLKKTQSLDEKRKLIPSPKARNPLVTVSDLQHVTLKPNSKVLSTRVTNVLITPGKSQMDLRKLLRKVDVERSPGGTPLTNKENMETGTGLTPVMTQALRRKFQLAHPRSPTPTLPLSTSSFDEQN
For B1, the binding result in experiment [5] was “binds”.
